Measurements reported in PubChem BioAssay AID1259405 (NCATS, 2018)
Test: 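Mouse-designed siRNAs used to find CHO productivity engineering targets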 (primary screen). Cells: Chinese hamster CHO-K1 ovary cells with stable secreted eGFP expression. Reagents: single siRNA against mouse genes, 0.8 pmol siRNA per well (2 µl of 400 nM stock). Duration: 3 days. Read-out: 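Percent of the per-plate non-targeting control median for intracellular GFP per well by laser scanning cytometry and for cell viability by ATP luminescence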. Scale: GFP, % of control: higher = more GFP per well, higher productivity; viability (ATP), % of control: higher = more viable cells (more ATP). Call rule: 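Called active when intracellular GFP, relative to negative control, is at or above 120%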.
This is one part, drawn at random, of about 50,000 reagents tested. Over the whole deposit, about 4,000 (8%) got an active call. 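Mouse siRNA library applied to hamster cells; one well for each siRNA.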 A number with no mark means an inactive call. The numbers tell different reagents against one gene apart. No sequences are given here.

gene symbol | reagent no. | GFP, % of control | viability (ATP), % of control
Bysl | 1 | 83.1 | 58.5
Bysl | 2 | 70 | 78.7
Bysl | 3 | 83 | 105
Fbxl19 | 1 | 87.9 | 69.8
Fbxl19 | 2 | 78.5 | 42.7
Fbxl19 | 3 | 91 | 67
Vps41 | 1 | 153 (active) | 146
Vps41 | 2 | 98.1 | 75.4
Chrm3 | 1 | 72 | 77.2
Chrm3 | 2 | 84.5 | 69
Chrm3 | 3 | 67.8 | 89.5
Pisd-ps1 | 1 | 72.1 | 50.7
Pisd-ps1 | 2 | 114 | 66.1
Pisd-ps1 | 3 | 99.8 | 89.4
Ccdc12 | 1 | 147 (active) | 95.7
Ccdc12 | 2 | 56.6 | 95.1
Ccdc12 | 3 | 74.5 | 77.5
Tmem263 | 1 | 68.2 | 71.9
Tmem263 | 2 | 80 | 80.3
Tmem263 | 3 | 105 | 86.8
Hoxc10 | 1 | 124 (active) | 113
Hoxc10 | 2 | 107 | 102
Hoxc10 | 3 | 54.7 | 83.1
Kif22 | 1 | 59.7 | 72.3
Kif22 | 2 | 75.8 | 59.1
Or10j27 | 1 | 78.8 | 73.8
Or10j27 | 2 | 86.6 | 85.9
Or10j27 | 3 | 121 (active) | 46.9
Apoe | 1 | 96.7 | 61.2
Apoe | 2 | 59.4 | 72.2
Apoe | 3 | 61 | 57.2
Tas2r117 | 1 | 73.8 | 107
Tas2r117 | 2 | 85.8 | 64.5
Tas2r117 | 3 | 0.331 | 195
Glis3 | 1 | 76.6 | 93
Glis3 | 2 | 105 | 84.8
Usp25 | 1 | 79.4 | 69.6
Usp25 | 2 | 89.4 | 93
Usp25 | 3 | 51.3 | 60.2
Cep68 | 1 | 58.3 | 38.3
Cep68 | 2 | 97.9 | 110
Cep68 | 3 | 90.9 | 122
Rsph6a | 1 | 108 | 67
Rsph6a | 2 | 49.2 | 72.8
Rsph6a | 3 | 61.9 | 74.1
Pigo | 1 | 154 (active) | 71.1
Pigo | 2 | 147 (active) | 83.3
Dclk2 | 1 | 40 | 53.1
Dclk2 | 2 | 62.5 | 54.9
Efnb1 | 1 | 97.6 | 81.3
Efnb1 | 2 | 87.5 | 63.5
Exog | 1 | 85.4 | 112
Exog | 2 | 120 | 129
Exog | 3 | 86.4 | 74.4
Npr1 | 1 | 65.1 | 93.3
Npr1 | 2 | 85.1 | 83.5
Npr1 | 3 | 80.6 | 65.3

An excerpt from above, limited to “viability (ATP), % of control”.
Chrm3 #3: 89.5
Pisd-ps1 #1: 50.7
Pisd-ps1 #2: 66.1
Pisd-ps1 #3: 89.4
Ccdc12 #1: 95.7 (active)
Ccdc12 #2: 95.1
